This is one part of the list. These are raw signals, not scaled to a control.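 First-pass screen: polymyxin B was added at a level that permeabilizes the Salmonella outer membrane while sparing the inner membrane. DMSO wells, with and without polymyxin B, defined maximum growth. Because plates differed from one another, each plate's data were ranked separately and the compounds with the lowest OD600 were carried forward as hits.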
System: Salmonella enterica serovar Typhimurium SL1344
Experiment: bacterial growth OD600 after 18 h with compound and polymyxin B; higher = more bacterial growth (less inhibition)
Details: 50 µM, Mueller-Hinton broth

SMILES: COc1cc(CC2(CCC(=O)NC(C)c3cccs3)CCC(=O)N2)ccc1F (centres undefined)
- bacterial growth OD600 (polymyxin B 0.75 µg/mL): 0.739

SMILES: Cc1ccc(-c2ccnc(-n3ncc(C(=O)N4CCN(Cc5ccccc5)CC4)c3C3CC3)n2)o1
- bacterial growth OD600 (polymyxin B 0.75 µg/mL): 1.02

SMILES: CCCc1cc(CN(C)C(=O)c2cc(NC(=O)c3ccccc3)cc3ncn(C4CCCC4)c23)n[nH]1
- bacterial growth OD600 (polymyxin B 0.75 µg/mL): 0.846

SMILES: CC(=O)c1cccc(OCc2cc(C(=O)N(C)Cc3ccno3)n[nH]2)c1
- bacterial growth OD600 (polymyxin B 1 µg/mL): 0.91

SMILES: COCCCn1c(CN2CCc3c([nH]c4ccccc34)C2C(C)C)cnc1S(C)(=O)=O (centres undefined)
- bacterial growth OD600 (polymyxin B 1 µg/mL): 0.932

SMILES: COc1ccc(CCN2C(=O)O[C@@H]3CN(Cc4nccn4C)C[C@@H]32)cc1
- bacterial growth OD600 (polymyxin B 0.75 µg/mL): 0.805

SMILES: CN(C(=O)CC(c1ccccc1)c1ccc2c(c1)OCO2)C1CCOCC1 (centres undefined)
- bacterial growth OD600 (polymyxin B 0.75 µg/mL): 0.694

SMILES: Cc1nn(C)c(C)c1CN(C(=O)CC1(c2ccc(-c3ccccc3)cc2)CC(=O)N(C)C1=O)C1CC1 (centres undefined)
- bacterial growth OD600 (polymyxin B 0.75 µg/mL): 0.002

SMILES: Cc1c[nH]c(CN2CCC(Oc3ccc(Cl)cc3C(=O)NC(C)(C)C)CC2)n1
- bacterial growth OD600 (polymyxin B 1 µg/mL): 0.948
